Measurements taken from paper PMC9287350.
Results are given in words; binding and its absence hold for the method and conditions named. Binding seen in cells or lysates may run through a third protein. Some binding calls cover weakened binding; strength is not graded here.

Chains of the proteins cited; added tags and fusions are not shown.
UniProt Q15022: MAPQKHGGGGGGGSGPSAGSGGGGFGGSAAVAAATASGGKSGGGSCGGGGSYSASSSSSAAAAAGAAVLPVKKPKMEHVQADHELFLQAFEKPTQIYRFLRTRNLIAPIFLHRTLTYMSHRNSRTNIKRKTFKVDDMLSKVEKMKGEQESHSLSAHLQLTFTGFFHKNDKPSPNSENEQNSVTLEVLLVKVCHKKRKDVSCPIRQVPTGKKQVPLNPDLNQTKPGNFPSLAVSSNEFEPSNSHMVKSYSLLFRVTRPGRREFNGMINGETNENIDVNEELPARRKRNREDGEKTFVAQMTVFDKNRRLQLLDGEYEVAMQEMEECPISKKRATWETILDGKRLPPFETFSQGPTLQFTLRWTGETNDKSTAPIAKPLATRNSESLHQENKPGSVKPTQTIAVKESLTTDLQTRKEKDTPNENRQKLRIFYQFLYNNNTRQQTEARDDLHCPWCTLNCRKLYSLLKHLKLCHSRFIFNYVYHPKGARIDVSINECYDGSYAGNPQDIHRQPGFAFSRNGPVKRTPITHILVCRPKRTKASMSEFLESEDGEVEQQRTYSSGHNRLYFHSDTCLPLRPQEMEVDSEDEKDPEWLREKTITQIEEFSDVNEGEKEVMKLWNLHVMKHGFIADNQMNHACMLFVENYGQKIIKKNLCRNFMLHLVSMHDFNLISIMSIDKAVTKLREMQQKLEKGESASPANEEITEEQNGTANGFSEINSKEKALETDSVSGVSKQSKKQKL
UniProt Q13547: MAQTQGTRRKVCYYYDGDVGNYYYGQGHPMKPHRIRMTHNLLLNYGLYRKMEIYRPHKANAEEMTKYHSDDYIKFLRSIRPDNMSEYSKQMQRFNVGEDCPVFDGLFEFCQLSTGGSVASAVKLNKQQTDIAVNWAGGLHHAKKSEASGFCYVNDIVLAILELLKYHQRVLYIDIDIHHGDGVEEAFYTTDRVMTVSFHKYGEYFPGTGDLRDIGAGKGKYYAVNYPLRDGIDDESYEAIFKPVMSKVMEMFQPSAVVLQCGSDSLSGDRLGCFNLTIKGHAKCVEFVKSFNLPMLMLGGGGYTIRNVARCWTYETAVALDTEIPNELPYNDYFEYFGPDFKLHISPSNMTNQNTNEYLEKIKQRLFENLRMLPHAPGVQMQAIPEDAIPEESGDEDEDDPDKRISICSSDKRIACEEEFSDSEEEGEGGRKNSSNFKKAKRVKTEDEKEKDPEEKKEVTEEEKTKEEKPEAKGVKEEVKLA

Target: SUZ12 (human (endogenous in human T cells)) (UniProt Q15022)
Assay: co-IP; endogenous proteins in lysates of human T cells (hypoxia); IP buffer 20 mM Tris pH 7.5, 100 mM NaCl, 0.5% NP-40, 0.5 mM EDTA; precipitated with HIF1α antibody, SUZ12 antibody or normal rabbit IgG, protein A-agarose; immunoblot

binding: binds
Substance: HDAC1 (from UniProt Q13547 1-482)
